Results are given in words; binding and its absence hold for the method and conditions named. For some of these results: In cells and extracts the contact can be indirect. Some binding calls cover weakened binding; strength is not graded here. For some of these results: Where a sequence is shown, tags or fusion partners need not be part of it.
T1: CLAMP^40–153 (Drosophila melanogaster, UniProt Q9V9N4 40-153)
T1 construct: Tags and their cleavage are told only in the Supplementary Information; source: E. coli BL21 (DE3), purified (IMAC, anion-exchange chromatography)
T1 sequence (looked up): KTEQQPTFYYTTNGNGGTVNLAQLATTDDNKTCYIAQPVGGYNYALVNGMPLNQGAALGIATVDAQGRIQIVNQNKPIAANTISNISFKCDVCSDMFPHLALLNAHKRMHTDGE

T2: GST-tagged MSL2^618–655 (Drosophila melanogaster) (UniProt P50534)
T2 sequence: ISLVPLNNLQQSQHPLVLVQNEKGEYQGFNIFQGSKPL

T3: GST-tagged MSL2^618–655 E639A (Drosophila melanogaster) (UniProt P50534)
T3 sequence: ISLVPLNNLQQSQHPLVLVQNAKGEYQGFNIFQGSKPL

T4: GST-tagged MSL2^618–655 H631A (Drosophila melanogaster) (UniProt P50534)
T4 sequence: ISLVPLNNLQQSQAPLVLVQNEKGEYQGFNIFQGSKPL

T5: GST-tagged MSL2^618–655 L633A;V634A;E639A;Y643A (Drosophila melanogaster) (UniProt P50534)
T5 sequence: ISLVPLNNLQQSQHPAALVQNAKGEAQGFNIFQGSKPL

T6: GST-tagged MSL2^618–655 Y643A (Drosophila melanogaster) (UniProt P50534)
T6 sequence: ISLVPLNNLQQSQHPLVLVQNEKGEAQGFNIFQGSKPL

T7: full-length CLAMP (GAL4 fusion, yeast two-hybrid) (Drosophila melanogaster) (UniProt Q9V9N4)
T7 sequence: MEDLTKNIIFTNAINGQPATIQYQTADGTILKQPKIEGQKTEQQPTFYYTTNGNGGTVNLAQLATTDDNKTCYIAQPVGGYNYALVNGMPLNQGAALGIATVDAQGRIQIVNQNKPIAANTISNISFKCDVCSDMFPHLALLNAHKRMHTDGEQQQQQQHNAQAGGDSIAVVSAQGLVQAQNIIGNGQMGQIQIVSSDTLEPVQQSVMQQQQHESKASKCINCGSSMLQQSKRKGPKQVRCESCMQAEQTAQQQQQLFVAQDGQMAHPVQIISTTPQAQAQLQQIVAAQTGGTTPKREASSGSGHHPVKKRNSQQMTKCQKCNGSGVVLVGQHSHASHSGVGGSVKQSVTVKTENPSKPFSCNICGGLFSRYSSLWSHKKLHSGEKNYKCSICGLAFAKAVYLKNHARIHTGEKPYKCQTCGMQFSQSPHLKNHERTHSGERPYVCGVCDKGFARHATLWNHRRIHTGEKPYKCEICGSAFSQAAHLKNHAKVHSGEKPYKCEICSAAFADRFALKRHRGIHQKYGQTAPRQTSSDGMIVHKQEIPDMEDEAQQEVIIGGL

T8: full-length MSL2 (GAL4 fusion, yeast two-hybrid) (Drosophila melanogaster) (UniProt P50534)
T8 sequence: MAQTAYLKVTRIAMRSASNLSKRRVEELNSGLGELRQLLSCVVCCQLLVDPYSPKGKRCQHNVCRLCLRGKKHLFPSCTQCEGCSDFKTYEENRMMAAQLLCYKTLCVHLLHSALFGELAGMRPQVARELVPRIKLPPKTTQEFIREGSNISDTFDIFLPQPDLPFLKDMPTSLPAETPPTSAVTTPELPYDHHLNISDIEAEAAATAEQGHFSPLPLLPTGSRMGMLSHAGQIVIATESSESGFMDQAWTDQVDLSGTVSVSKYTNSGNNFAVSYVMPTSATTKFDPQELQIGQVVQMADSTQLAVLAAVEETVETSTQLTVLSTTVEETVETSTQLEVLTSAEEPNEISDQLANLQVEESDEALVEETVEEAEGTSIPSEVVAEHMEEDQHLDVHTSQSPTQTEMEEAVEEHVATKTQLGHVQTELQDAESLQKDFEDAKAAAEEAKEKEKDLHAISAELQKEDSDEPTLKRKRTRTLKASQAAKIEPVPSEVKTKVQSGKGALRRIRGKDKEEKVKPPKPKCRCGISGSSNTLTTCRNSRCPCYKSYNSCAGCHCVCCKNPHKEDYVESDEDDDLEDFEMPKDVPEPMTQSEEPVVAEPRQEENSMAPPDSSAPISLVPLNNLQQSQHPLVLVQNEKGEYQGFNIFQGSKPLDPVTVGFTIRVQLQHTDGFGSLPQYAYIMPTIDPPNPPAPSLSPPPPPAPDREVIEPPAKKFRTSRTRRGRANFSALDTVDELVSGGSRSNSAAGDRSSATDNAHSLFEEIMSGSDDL

T9: MSL2^618–655 (Drosophila melanogaster) (UniProt P50534)
T9 sequence: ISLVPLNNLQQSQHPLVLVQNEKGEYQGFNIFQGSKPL

B1: MSL2^618–655 (domain or fragment, Drosophila melanogaster, UniProt P50534 618-655, looked up)
chain: ISLVPLNNLQQSQHPLVLVQNEKGEYQGFNIFQGSKPL
notes: Unlabelled or 13C,15N-labelled for NMR; Tags and their cleavage are told only in the Supplementary Information; also called MSL2 peptide; source: E. coli BL21 (DE3), purified (IMAC, anion-exchange chromatography)
B2: 6xHis-thioredoxin-tagged CLAMP^1–153 K146E (domain or fragment, UniProt Q9V9N4 1-153)
chain: MEDLTKNIIFTNAINGQPATIQYQTADGTILKQPKIEGQKTEQQPTFYYTTNGNGGTVNLAQLATTDDNKTCYIAQPVGGYNYALVNGMPLNQGAALGIATVDAQGRIQIVNQNKPIAANTISNISFKCDVCSDMFPHLALLNAHERMHTDGE
B3: 6xHis-thioredoxin-tagged CLAMP^1–153 (domain or fragment, UniProt Q9V9N4 1-153)
chain: MEDLTKNIIFTNAINGQPATIQYQTADGTILKQPKIEGQKTEQQPTFYYTTNGNGGTVNLAQLATTDDNKTCYIAQPVGGYNYALVNGMPLNQGAALGIATVDAQGRIQIVNQNKPIAANTISNISFKCDVCSDMFPHLALLNAHKRMHTDGE
B4: CLAMP^1–153 (GAL4 fusion, yeast two-hybrid) (domain or fragment, UniProt Q9V9N4 1-153)
chain: MEDLTKNIIFTNAINGQPATIQYQTADGTILKQPKIEGQKTEQQPTFYYTTNGNGGTVNLAQLATTDDNKTCYIAQPVGGYNYALVNGMPLNQGAALGIATVDAQGRIQIVNQNKPIAANTISNISFKCDVCSDMFPHLALLNAHKRMHTDGE
B5: CLAMP^1–153 I122A (GAL4 fusion, yeast two-hybrid) (domain or fragment, UniProt Q9V9N4 1-153)
chain: MEDLTKNIIFTNAINGQPATIQYQTADGTILKQPKIEGQKTEQQPTFYYTTNGNGGTVNLAQLATTDDNKTCYIAQPVGGYNYALVNGMPLNQGAALGIATVDAQGRIQIVNQNKPIAANTASNISFKCDVCSDMFPHLALLNAHKRMHTDGE
B6: CLAMP^1–153 H138A (GAL4 fusion, yeast two-hybrid) (domain or fragment, UniProt Q9V9N4 1-153)
chain: MEDLTKNIIFTNAINGQPATIQYQTADGTILKQPKIEGQKTEQQPTFYYTTNGNGGTVNLAQLATTDDNKTCYIAQPVGGYNYALVNGMPLNQGAALGIATVDAQGRIQIVNQNKPIAANTISNISFKCDVCSDMFPALALLNAHKRMHTDGE
B7: CLAMP^1–153 L141A (GAL4 fusion, yeast two-hybrid) (domain or fragment, UniProt Q9V9N4 1-153)
chain: MEDLTKNIIFTNAINGQPATIQYQTADGTILKQPKIEGQKTEQQPTFYYTTNGNGGTVNLAQLATTDDNKTCYIAQPVGGYNYALVNGMPLNQGAALGIATVDAQGRIQIVNQNKPIAANTISNISFKCDVCSDMFPHLAALNAHKRMHTDGE
B8: CLAMP^1–153 N143A (GAL4 fusion, yeast two-hybrid) (domain or fragment, UniProt Q9V9N4 1-153)
chain: MEDLTKNIIFTNAINGQPATIQYQTADGTILKQPKIEGQKTEQQPTFYYTTNGNGGTVNLAQLATTDDNKTCYIAQPVGGYNYALVNGMPLNQGAALGIATVDAQGRIQIVNQNKPIAANTISNISFKCDVCSDMFPHLALLAAHKRMHTDGE
B9: CLAMP^1–153 R147E (GAL4 fusion, yeast two-hybrid) (domain or fragment, UniProt Q9V9N4 1-153)
chain: MEDLTKNIIFTNAINGQPATIQYQTADGTILKQPKIEGQKTEQQPTFYYTTNGNGGTVNLAQLATTDDNKTCYIAQPVGGYNYALVNGMPLNQGAALGIATVDAQGRIQIVNQNKPIAANTISNISFKCDVCSDMFPHLALLNAHKEMHTDGE
B10: 6xHis-thioredoxin-tagged CLAMP^1–153 I122A (domain or fragment, UniProt Q9V9N4 1-153)
chain: MEDLTKNIIFTNAINGQPATIQYQTADGTILKQPKIEGQKTEQQPTFYYTTNGNGGTVNLAQLATTDDNKTCYIAQPVGGYNYALVNGMPLNQGAALGIATVDAQGRIQIVNQNKPIAANTASNISFKCDVCSDMFPHLALLNAHKRMHTDGE
B11: 6xHis-thioredoxin-tagged CLAMP^1–153 H138A (domain or fragment, UniProt Q9V9N4 1-153)
chain: MEDLTKNIIFTNAINGQPATIQYQTADGTILKQPKIEGQKTEQQPTFYYTTNGNGGTVNLAQLATTDDNKTCYIAQPVGGYNYALVNGMPLNQGAALGIATVDAQGRIQIVNQNKPIAANTISNISFKCDVCSDMFPALALLNAHKRMHTDGE
B12: 6xHis-thioredoxin-tagged CLAMP^1–153 L139A (domain or fragment, UniProt Q9V9N4 1-153)
chain: MEDLTKNIIFTNAINGQPATIQYQTADGTILKQPKIEGQKTEQQPTFYYTTNGNGGTVNLAQLATTDDNKTCYIAQPVGGYNYALVNGMPLNQGAALGIATVDAQGRIQIVNQNKPIAANTISNISFKCDVCSDMFPHAALLNAHKRMHTDGE
B13: 6xHis-thioredoxin-tagged CLAMP^1–153 L141A (domain or fragment, UniProt Q9V9N4 1-153)
chain: MEDLTKNIIFTNAINGQPATIQYQTADGTILKQPKIEGQKTEQQPTFYYTTNGNGGTVNLAQLATTDDNKTCYIAQPVGGYNYALVNGMPLNQGAALGIATVDAQGRIQIVNQNKPIAANTISNISFKCDVCSDMFPHLAALNAHKRMHTDGE
B14: 6xHis-thioredoxin-tagged CLAMP^1–153 N143A (domain or fragment, UniProt Q9V9N4 1-153)
chain: MEDLTKNIIFTNAINGQPATIQYQTADGTILKQPKIEGQKTEQQPTFYYTTNGNGGTVNLAQLATTDDNKTCYIAQPVGGYNYALVNGMPLNQGAALGIATVDAQGRIQIVNQNKPIAANTISNISFKCDVCSDMFPHLALLAAHKRMHTDGE
B15: 6xHis-thioredoxin-tagged CLAMP^1–153 R147E (domain or fragment, UniProt Q9V9N4 1-153)
chain: MEDLTKNIIFTNAINGQPATIQYQTADGTILKQPKIEGQKTEQQPTFYYTTNGNGGTVNLAQLATTDDNKTCYIAQPVGGYNYALVNGMPLNQGAALGIATVDAQGRIQIVNQNKPIAANTISNISFKCDVCSDMFPHLALLNAHKEMHTDGE
B16: CLAMP^40–153 (domain or fragment, UniProt Q9V9N4 40-153)
chain: KTEQQPTFYYTTNGNGGTVNLAQLATTDDNKTCYIAQPVGGYNYALVNGMPLNQGAALGIATVDAQGRIQIVNQNKPIAANTISNISFKCDVCSDMFPHLALLNAHKRMHTDGE
B17: CLAMP^41–153 L139A/K146E (domain or fragment, UniProt Q9V9N4 41-153)
chain: TEQQPTFYYTTNGNGGTVNLAQLATTDDNKTCYIAQPVGGYNYALVNGMPLNQGAALGIATVDAQGRIQIVNQNKPIAANTISNISFKCDVCSDMFPHAALLNAHERMHTDGE

What was measured:
CLAMP^40–153 [1] = target: T1, CLAMP^40–153; experiment: NMR titration; 15N-labeled CLAMP 40–153 titrated with an excess of unlabeled MSL2 618–655; chemical shift perturbation; 25°C; both purified
[2] = target: T2, GST-tagged MSL2^618–655 (Drosophila melanogaster); experiment: pull-down; GST-pulldown: GST-tagged MSL2 618–655 and 6xHis-thioredoxin-tagged CLAMP 1–153; performed as described in ref. 12
[3] = target: T3, GST-tagged MSL2^618–655 E639A (Drosophila melanogaster); experiment: as above
[4] = target: T4, GST-tagged MSL2^618–655 H631A (Drosophila melanogaster); experiment: as above
[5] = target: T5, GST-tagged MSL2^618–655 L633A;V634A;E639A;Y643A (Drosophila melanogaster); experiment: as above
[6] = target: T6, GST-tagged MSL2^618–655 Y643A (Drosophila melanogaster); experiment: as above
[7] = target: T7, full-length CLAMP (GAL4 fusion, yeast two-hybrid) (Drosophila melanogaster); experiment: two-hybrid; GAL4 DNA-binding and activation domain fusions (pGBT9, pGAD424) in yeast strain pJ69-4A; growth on media without tryptophan, leucine, histidine and adenine, 30°C
[8] = target: T8, full-length MSL2 (GAL4 fusion, yeast two-hybrid) (Drosophila melanogaster); experiment: as above
CLAMP^40–153 [9] = target: T1, CLAMP^40–153; experiment: NMR relaxation; CLAMP 40–153 alone, in vitro; both purified
[10] = target: T9, MSL2^618–655 (Drosophila melanogaster); experiment: NMR titration; stable isotope-labeled MSL2 618–655 titrated with unlabeled CLAMP 40–153 (or CLAMP 41–153 L139A/K146E); chemical shift perturbation, fast exchange; 25°C; both purified

Binder	binding [2]	binding [8]	other results
B1			binding (CLAMP^40–153 [1]): binds weakly
B2	binds		
B3	binds		binding [3]: binds; binding [4]: binds; binding [5]: binds weakly; binding [6]: binds
B4		binds	binding [7]: binds
B5		binds	
B6		binds	
B7		binds	
B8		binds	
B9		binds	
B10	binds		
B11	binds		
B12	binds		
B13	binds		
B14	binds		
B15	binds		
B16			binding (CLAMP^40–153 [9]): no binding
B17			binding [10]: no binding

— article PMC9226498, “Structural basis for interaction between CLAMP and MSL2 proteins involved in the specific recruitment of the dosage compensation complex in Drosophila” (Nucleic Acids Research, 2022)
